This test deals with T1, eIF2Bγ (S. cerevisiae) (UniProt P09032).
T1 sequence: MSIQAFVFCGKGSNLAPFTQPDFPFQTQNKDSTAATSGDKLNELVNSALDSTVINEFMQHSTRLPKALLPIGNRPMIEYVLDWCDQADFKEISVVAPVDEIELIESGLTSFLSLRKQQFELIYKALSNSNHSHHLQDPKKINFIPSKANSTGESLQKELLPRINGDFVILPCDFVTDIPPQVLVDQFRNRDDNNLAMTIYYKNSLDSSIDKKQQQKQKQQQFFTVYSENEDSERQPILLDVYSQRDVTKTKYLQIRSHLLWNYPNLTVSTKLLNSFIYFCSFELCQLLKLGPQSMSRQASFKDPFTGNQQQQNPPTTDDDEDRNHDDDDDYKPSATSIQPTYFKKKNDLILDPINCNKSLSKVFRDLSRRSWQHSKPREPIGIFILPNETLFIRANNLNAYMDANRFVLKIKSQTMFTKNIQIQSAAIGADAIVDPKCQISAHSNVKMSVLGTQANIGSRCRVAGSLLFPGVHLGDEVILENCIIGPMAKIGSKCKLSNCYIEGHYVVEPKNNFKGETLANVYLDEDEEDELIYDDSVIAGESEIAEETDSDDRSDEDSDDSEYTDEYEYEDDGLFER
Put plainly: co-purification of a sub-complex; purified eIF2Bγε sub-complex, used in the GTP filter binding assay; its purification is not described.

Protein sequences, listed by entry. Tags and fused reporters are not part of them.
UniProt P32501: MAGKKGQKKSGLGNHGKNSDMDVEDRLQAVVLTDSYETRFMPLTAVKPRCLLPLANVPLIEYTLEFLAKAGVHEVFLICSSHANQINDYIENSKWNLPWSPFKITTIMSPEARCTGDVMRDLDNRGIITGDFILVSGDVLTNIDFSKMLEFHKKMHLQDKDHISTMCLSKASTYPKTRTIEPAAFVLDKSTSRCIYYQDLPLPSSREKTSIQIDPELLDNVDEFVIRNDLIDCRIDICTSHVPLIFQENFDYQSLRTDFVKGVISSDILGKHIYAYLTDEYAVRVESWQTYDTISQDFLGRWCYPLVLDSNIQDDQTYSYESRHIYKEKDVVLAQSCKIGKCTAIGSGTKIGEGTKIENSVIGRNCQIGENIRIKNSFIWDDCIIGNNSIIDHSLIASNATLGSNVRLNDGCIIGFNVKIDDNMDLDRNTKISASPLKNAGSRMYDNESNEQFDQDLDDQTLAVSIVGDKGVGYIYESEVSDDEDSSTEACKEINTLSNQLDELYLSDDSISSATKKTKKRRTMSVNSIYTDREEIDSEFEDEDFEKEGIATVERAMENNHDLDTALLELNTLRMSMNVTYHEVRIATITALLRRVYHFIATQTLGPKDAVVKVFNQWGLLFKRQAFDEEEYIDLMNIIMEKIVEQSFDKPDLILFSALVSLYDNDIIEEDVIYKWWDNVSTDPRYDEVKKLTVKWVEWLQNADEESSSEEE

Results are given in words; binding and its absence hold for the method and conditions named. Some entries that bind do so weakly or less than the wild type.

The text below walks through data of paper PMC8633983, “GTP binding to translation factor eIF2B stimulates its guanine nucleotide exchange activity” (iScience, 2021).

With eIF2Bε (from UniProt P32501 1-712), the binding result was “binds”.
